Assay results reported in publication PMC9908027.
No constants are given. Whether binding was seen depends on the method and setting. Binding seen in cells or lysates may run through a third protein. Binding calls can cover weak binding; strength is not graded here. Tags and fused reporters may be left off the sequences shown.

Amino acid sequences for entries named in this document (tags omitted). A change or cut given only in a name is not applied to a line headed by its entry.
UniProt Q93229: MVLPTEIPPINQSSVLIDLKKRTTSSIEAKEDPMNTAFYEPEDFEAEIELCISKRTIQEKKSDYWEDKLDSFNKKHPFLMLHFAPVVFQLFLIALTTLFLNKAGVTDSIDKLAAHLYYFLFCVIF

Molecular target: HA::MJL-1 (MAJIN-Like-1) (C. elegans) (UniProt Q93229)
Test: co-IP; HA::MJL-1 immunoprecipitated with anti-HA antibody on Dynabeads Protein A from sonicated lysate of nuclei of ha::mjl-1; v5::sun-1 hermaphrodites; 130 mM NaCl, 2.5 mM MgCl2, 25 mM Hepes pH 7.4, 2 mM EGTA, 1% Triton X-100; 4°C, 2 hours; blots with anti-HA and anti-V5

binding: binds
B1: V5::SUN-1 (protein, UniProt Q20924 1-473)
chain: MALRHTISPQFSNRHSPPVTRSVSRTGVHQPLDTSTPVTRRDSQPGTITGTIQRFHESADDSEIDLNSSKFIYKEHFSYKEITSMKKEMWYDWLEYRIRMVRRRFVPTWAQFKRTLMAVVLFAMLYKYARDCLFDGTHHNSEGSYADKDANWASEKQKFHQTISNLRAEFSAHDKQLDFKTDHLEKLLENVLEHSKGWKESAIEELKQIKLWQAEISDALQQMKKEIDDAKSTKIIHSTPEKAPETAPTASLPPSSQLQPMHITRRALLGVNVANSLIGASIDHSCSSRPVSAKDGFFYDFMSYFGTFQEGYALLDRDVLSPGEAWCTYDKRATLTVKLARFVIPKSVSYQHVRWSGIVPNHAPKLYDVVACTDSCCTKWQPLVANCEYKERDGSYDEQEQFCSVPTIQNHSPINHVQFRFRENHGDMPKTCAYLIRVYGEPVDPPKETQPMTDNGTESKLESAIVNSVSETA
